Test system: DDB1ΔB-CRBN
Assay: TR-FRET of SALL4 degron binding to CRBN
Set-up: species or system human
Conditions: SALL4 degron tags, biochemical assays
Protocol: Compounds in binding assays were dispensed into a 384-well microplate (Corning, 4514) using the D300e Digital Dispenser (HP) normalized to 1% DMSO and containing 100 nM biotinylated Strep-Avi-SALL4 (WT or mutant, see, FIG. 3A-FIG. 3K), 1 μM His6-DDB1ΔB-His6-CRBNBODIPY-Spycatcher and 4 nM terbium-coupled streptavidin (Invitrogen) in a buffer containing 50 mM Tris pH 7.5, 100 mM NaCl, 1 mM TCEP, 0.1% Pluronic F-68 solution (Sigma). Before TR-FRET measurements were conducted, the reactions were incubated for 15 minutes at room temperature (RT). After excitation of terbium fluorescence at 337 nm, emission at 490 nm (terbium) and 520 nm (boron-dipyrromethene (BODIPY)) were recorded with a 70 μs delay over 600 μs to reduce background fluorescence and the reaction was followed over 30×200 second cycles of each data point using a PHERAstar® FS microplate reader (BMG Labtech). The TR-FRET signal of each data point was extracted by calculating the 520/490 nm ratios. Data from three independent measurements (n=3), each calculated as an average of 5 technical replicates per well per experiment, was plotted and the half maximal effective concentrations EC50 values calculated using variable slope equation in GraphPad Prism 7. […] The resulting data were fitted as described previously. (Petzold et al., Nature 532:127-130 (2016)).

With “SALL4 ZnF4: degron tag MHYRTHTGERPFQCKICGRAFSTKGNLKTHLGVHRTNTSIKTQ (SEQ ID NO: 28)” the “IMiD-dependent dimerization / binding affinity to CRBN” value was “binds with reduced affinity”.
